Results published in patent publication EP0639971B1, “THERAPEUTIC COMBINATIONS” (priority 1992, dated 1993).
The name of at least one read-out is uncertain.

System: HIV-1 population containing four mutations in the HIV-RT which confer zidovudine resistance
Assay: Passage of zidovudine-resistant HIV-1 in cell culture with increasing concentrations of Chloro-TIBO; antiviral sensitivity (IC50)
Assay type: cell-based
Conditions: after five passages with increasing concentrations of Chloro-TIBO

## CC(C)=CCN1Cc2cc(Cl)cc3[nH]c(=S)n(c23)C[C@@H]1C [Chloro-TIBO, 9-chloro-4,5,6,7-tetrahydro-5-methyl-6-(3-methyl-2-butenyl)-S-imidazo[4,5,i-jk][1,4]benzodiazepine-2(1H)-thione]
  increase of 50% inhibitory concentration (IC50) for the compound against the virus: more than fifty-fold
